Patent publication US20080293759A1, “Method for Treating Cancer Based on the Modulation of Calcineurin” (Centre National De La Recherche, priority 2005, published 2008)
At least one structure is not confirmed: it was looked up by name or label, or the drawing left a doubt.

Experiments:
TEL-JAK2 leukemic cells = conditions: regressing tumors, semi-thin sections and electron microscopy of liver
ICN1 leukemic cells = assay: ICN1 leukemic mice treated with CsA or Prograf (Example 2); format: in vivo, mouse; conditions: Prograf 3 mg/kg/day for 14 days, Kaplan-Meier, log-rank test

Structure (SMILES): C=CC[C@@H]1/C=C(\C)C[C@H](C)C[C@H](OC)[C@H]2O[C@@](O)(C(=O)C(=O)N3CCCC[C@H]3C(=O)O[C@H](/C(C)=C/[C@@H]3CC[C@@H](O)[C@H](OC)C3)[C@H](C)[C@@H](O)CC1=O)[C@H](C)C[C@@H]2OC [Prograf, FK506]
- tumor cell death (structural and ultrastructural features of apoptotic cells) (TEL-JAK2 leukemic cells): induced tumor cell death
- survival of tumor-bearing mice (ICN1 leukemic cells): statistically significant prolongation of survival
